The list is a part of this screen's results and no random one: it is rich in T/C values a quarter to a half above the control, in often repeated tests (any T/C) and in doses without a T/C. Further doses and runs are listed elsewhere. T/C gives the treated animals as a percentage of the vehicle group. Schedules are NCI's codes, taken here to give the interval after Q, in days (D) or hours (H), and the number of doses after X. Some schedule codes hold Z or #, which are not explained here. Some T/C values are followed by the survivors on the day toxicity was checked, most often the fifth; where none is given, no animal had died by that day. Some doses were run more than once; the values are given in rising order. Some entries give survivors of the animals treated and no T/C: the source files T/C as zero there, which appears to mark a toxic dose or a test without result, not a measured value. Counts of survivors are from the toxicity check (mostly the fifth day) where no day follows; animals may have died later. Some molecules as drawn cover several salts, stereoisomers or complexes of the source; a dose is that of the sample tested.
System: Swiss mice, Sarcoma 180 sc, mean tumor weight T/C
Experiment: NCI In Vivo Anticancer Drug Screen. Data for tumor model Sarcoma 180 (subcutaneous) in Swiss mice
Settings: T/C endpoint: mean tumor weight, higher T/C = larger tumour; for T/C: evaluated on day 8
Procedure: The antitumor activity of compounds was measured in mice bearing transplantable tumors. Survival or tumor size were measured and the results are expressed as the measurement made in the treated group (T) divided by the measurement made in the vehicle treated control group (C). The tumor model used in this assay is Sarcoma 180 (subcutaneous) in Swiss mice

[1] = dose: 100.0 mg/kg/injection, schedule: Q01DX007 (ip), vehicle: carboxymethylcellulose (CMC)
[2] = dose: 150.0 mg/kg/injection, schedule: Q01DX007 (ip), vehicle: carboxymethylcellulose (CMC)
[3] = dose: 110.0 mg/kg/injection, schedule: Q01DX007 (ip), vehicle: other
[4] = dose: 166.0 mg/kg/injection, schedule: Q01DX007 (ip), vehicle: other

With `CN(Cc1cnc2nc(N)nc(N)c2n1)c1ccc(C(=O)N[C@@H](CCC(=O)O)C(=O)O)cc1` the T/C (dose: 0.95 mg/kg/injection, schedule: Q01DX007 (ip), vehicle: carboxymethylcellulose (CMC)) was 149 % of control, the T/C (dose: 1.0 mg/kg/injection, schedule: Q01DX007 (ip), vehicle: carboxymethylcellulose (CMC)) was 143 % of control and the survivor count (dose: 1.0 mg/kg/injection, schedule: Q01DX007 (ip), vehicle: water) was 3 of 6. The survivor count (dose: 2.0 mg/kg/injection, schedule: Q01DX007 (ip), vehicle: water) was 2 of 6.

For `CC(C)CC(C)(C[N+](=O)[O-])C[N+](=O)[O-]`, the survivor count (dose: 20.0 mg/kg/injection, schedule: Q01DX007 (ip), vehicle: saline) was 0 of 6.

For `Nc1nc(N)c2[nH]cnc2n1`, the T/C (dose: 12.5 mg/kg/injection, schedule: Q#A X014 (ip), vehicle: carboxymethylcellulose (CMC)) was 142 % of control and the T/C (dose: 50.0 mg/kg/injection, schedule: Q#A X014 (ip), vehicle: carboxymethylcellulose (CMC)) was 138 % of control.

For `CC(=O)Nc1ccc(/C=N/Nc2ccc([N+](=O)[O-])cn2)cc1`, the survivor count [1] was 2 of 6, the survivor count (dose: 125.0 mg/kg/injection, schedule: Q#A X014 (ip), vehicle: methylcellulose (MC)) was 3 of 6 and the survivor count [2] was 1 of 6. For the same molecule, the survivor count (dose: 187.5 mg/kg/injection, schedule: Q#A X014 (ip), vehicle: methylcellulose (MC)) was 1 of 6.

`CC(=O)Nc1c(Cl)c(Cl)c2c(c1Cl)Cc1cc(Cl)c(Cl)cc1-2` was tested, and the survivor count (dose: 25.0 mg/kg/injection, schedule: Q01DX007 (ip), vehicle: carboxymethylcellulose (CMC)) was 2 of 6, the survivor count (dose: 48.0 mg/kg/injection, schedule: Q01DX007 (ip), vehicle: other) was 0 of 6 and the survivor count (dose: 50.0 mg/kg/injection, schedule: Q01DX007 (ip), vehicle: carboxymethylcellulose (CMC)) was 1 of 6. For the same molecule, the survivor count (dose: 74.0 mg/kg/injection, schedule: Q01DX007 (ip), vehicle: other) was 0 of 6 and 1 of 6, the survivor count [1] was 0 of 6 and the survivor count (dose: 110.0 mg/kg/injection, schedule: Q01DX007 (ip), vehicle: carboxymethylcellulose (CMC)) was 1 of 6. For the same molecule, the T/C [3] was 29 [5 of 6 alive] and 31 % of control, the survivor count [3] was 1 of 6 and 2 of 6 and the survivor count (dose: 166.0 mg/kg/injection, schedule: Q01DX007 (ip), vehicle: carboxymethylcellulose (CMC)) was 2 of 6. The T/C [4] was 28 % of control, the survivor count [4] was 0 of 6 and 2 of 6 and the survivor count (dose: 250.0 mg/kg/injection, schedule: Q01DX007 (ip), vehicle: carboxymethylcellulose (CMC)) was 0 of 6. The survivor count (dose: 250.0 mg/kg/injection, schedule: Q01DX007 (ip), vehicle: other) was 1 of 6, the survivor count (dose: 375.0 mg/kg/injection, schedule: Q01DX007 (ip), vehicle: carboxymethylcellulose (CMC)) was 0 of 6 and the survivor count (dose: 375.0 mg/kg/injection, schedule: Q01DX007 (ip), vehicle: other) was 0 of 6.

In the case of `CCN(CC)P(=S)(N1CC1)N1CC1`, the survivor count (dose: 335.0 mg/kg/injection, schedule: Q01DX007 (ip), vehicle: saline) is reported as 3 of 6 and the survivor count (dose: 500.0 mg/kg/injection, schedule: Q01DX007 (ip), vehicle: saline) is reported as 2 of 6.

In the case of `CC(=O)Nc1cc2c(cc1[N+](=O)[O-])-c1ccccc1C2O` (configuration not stated), the survivor count (dose: 222.0 mg/kg/injection, schedule: Q01DX007 (ip), vehicle: saline) is reported as 1 of 6 and the survivor count (dose: 750.0 mg/kg/injection, schedule: Q01DX007 (ip), vehicle: other) is reported as 0 of 6.

For `CN(C)[C@@H]1C(=O)C(C(=O)NCNC(CO)(CO)CO)=C(O)[C@@]2(O)C(=O)C3=C(O)c4c(O)cccc4[C@@](C)(O)[C@H]3C[C@@H]12`, the survivor count (dose: 187.5 mg/kg/injection, schedule: Q#A X014 (ip), vehicle: saline) was 2 of 6, the survivor count (dose: 320.0 mg/kg/injection, schedule: Q01DX007 (ip), vehicle: saline) was 2 of 6 and the survivor count (dose: 400.0 mg/kg/injection, schedule: Q01DX007 (ip), vehicle: other) was 0 of 6. The survivor count (dose: 420.0 mg/kg/injection, schedule: Q01DX007 (ip), vehicle: other) was 2 of 6, the survivor count (dose: 480.0 mg/kg/injection, schedule: Q01DX007 (ip), vehicle: other) was 0 of 6 and the survivor count (dose: 600.0 mg/kg/injection, schedule: Q01DX007 (ip), vehicle: other) was 0 of 6.

`CCCCCN(C)/N=N/c1nc[nH]c1C(N)=O` was tested, and the survivor count [1] was 3 of 6 and the survivor count [2] was 2 of 6 and 3 of 6.

For `Oc1ccccc1C(Nc1nc2ccccc2s1)c1ccc2cccnc2c1O` (configuration not stated), the survivor count (dose: 500.0 mg/kg/injection, schedule: Q01DX007 (ip), vehicle: other) was 0 of 6.

With `CCCCCCCCCCCCCCCCC(C(=O)O)C(O)(CC(=O)O)C(=O)O` (configuration not stated) the survivor count [2] was 0 of 7.

In the case of `Cc1cc2c(c3oc(C4(C)OC4C4OC4C)cc(=O)c13)C(=O)c1c(O)c(C3CC(C)(N(C)C)C(O)C(C)O3)cc(C3CC(N(C)C)C(O)C(C)O3)c1C2=O` (configuration not stated), the survivor count (dose: 0.2 mg/kg/injection, schedule: Q01DX007 (sc), vehicle: other) is reported as 3 of 6 and the survivor count (dose: 0.4 mg/kg/injection, schedule: Q01DX007 (sc), vehicle: other) is reported as 0 of 6.

With `CC1CN1P(=O)(Oc1ccccc1)N1CC1C` (configuration not stated) the survivor count (dose: 62.5 mg/kg/injection, schedule: Q#A X014 (ip), vehicle: saline) was 3 of 6 and the survivor count (dose: 94.0 mg/kg/injection, schedule: Q#A X014 (ip), vehicle: saline) was 1 of 6, 2 of 6, 4 of 8.

`O=S(c1ccc(Cl)cc1)c1ccc(Cl)cc1` was tested, and the survivor count (dose: 125.0 mg/kg/injection, schedule: Q01DX007 (ip), vehicle: carboxymethylcellulose (CMC)) was 2 of 6.

`CC[C@](C)(O)C(=O)O[C@H]1C(=O)O[C@@H]2C[C@H]3C(C)=C[C@H](O)[C@@H](O)[C@]3(C)[C@H]3[C@@]4(O)OC[C@]32[C@@H]1[C@@H](C)[C@H]4O` was tested, and the survivor count (dose: 13.5 mg/kg/injection, schedule: Q01DX007 (sc), vehicle: olive oil, sesame oil, peanut oil) was 4 of 7.

For `O=C(O)c1ccc(-c2ccccc2)cc1`, the survivor count (dose: 400.0 mg/kg/injection, schedule: Q01DX007 (ip), vehicle: carboxymethylcellulose (CMC)) was 2 of 4.

In the case of `NC(=O)c1n[se]nc1N`, the survivor count (dose: 4.0 mg/kg/injection, schedule: Q01DX007 (ip), vehicle: carboxymethylcellulose (CMC)) is reported as 3 of 6, the survivor count (dose: 8.0 mg/kg/injection, schedule: Q01DX007 (ip), vehicle: carboxymethylcellulose (CMC)) is reported as 0 of 6 and the survivor count (dose: 16.0 mg/kg/injection, schedule: Q01DX007 (ip), vehicle: carboxymethylcellulose (CMC)) is reported as 0 of 6. The survivor count (dose: 31.0 mg/kg/injection, schedule: Q01DX007 (ip), vehicle: carboxymethylcellulose (CMC)) was 0 of 6 and the survivor count (dose: 62.0 mg/kg/injection, schedule: Q01DX007 (ip), vehicle: carboxymethylcellulose (CMC)) was 0 of 6.

`CC1OC2CC(=O)OC2C2=C1C(=O)c1c(O)c3c(c(O)c1C2=O)C1CC(O)C3(O)C(C)O1` (configuration not stated) was tested, and the T/C (dose: 0.05 mg/kg/injection, schedule: Q01DX007 (ip), vehicle: saline) was 126 % of control, the T/C (dose: 0.2 mg/kg/injection, schedule: Q01DX007 (ip), vehicle: saline) was 127 % of control and the survivor count (dose: 48.0 mg/kg/injection, schedule: Q01DX007 (ip), vehicle: saline) was 0 of 6. The survivor count (dose: 96.0 mg/kg/injection, schedule: Q01DX007 (ip), vehicle: saline) was 0 of 6.

In the case of `O=C1C=CC(=Nc2ccc3c(c2)C(Br)c2ccccc2-3)O1` (configuration not stated), the survivor count (dose: 37.5 mg/kg/injection, schedule: Q#A X014 (ip), vehicle: saline) is reported as 1 of 6.

In the case of `CCCS/C(N)=N/N=C/c1ccc([N+](=O)[O-])o1`, the survivor count (dose: 40.0 mg/kg/injection, schedule: Q01DX007 (ip), vehicle: other) is reported as 3 of 7, the survivor count (dose: 60.0 mg/kg/injection, schedule: Q01DX007 (ip), vehicle: other) is reported as 4 of 7 and the survivor count (dose: 90.0 mg/kg/injection, schedule: Q01DX007 (ip), vehicle: other) is reported as 0 of 7. The survivor count (dose: 90.0 mg/kg/injection, schedule: Q01DX007 (ip), vehicle: water) was 1 of 6.

`O=NN(CCCl)C(=O)NCCCl` was tested, and the survivor count (dose: 24.0 mg/kg/injection, schedule: Q01DX007 (ip), vehicle: saline) was 2 of 6.

— PubChem BioAssay AID342 (DTP/NCI, 2004)
